Test results as given in PubChem BioAssay AID493014 (National Center for Advancing Translational Sciences (NCATS), 2011).
Some of the results follow. Further columns of the screen follow, without active or inactive calls. Compounds called inactive in the main read-out are mostly missing here. Words in brackets tell the shape of the fitted curve; partial curves, single points and poor fits give uncertain potencies.

Experiment: qHTS Assay to Find Inhibitors of Chronic Active B-Cell Receptor Signaling
Conditions: ABC-DLBCL IkBa-CBG/CBR reporter, luminescence ratio (green luciferase fused to IkBa over red control in TMD8 lymphoma cells), 4 h
Procedure, shortened: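 TMD8 human ABC-DLBCL cells with doxycycline-inducible IκBα–green luciferase fusion and unfused red luciferase, in 0.5% FBS medium; compounds up to 46 uM, 4 h at 37C. Green/red luminescence ratio, filter-overlap corrected, fitted to concentration-response curves.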

[1] = measured here: CBR red luminescence, cell number
[2] = measured here: IkBa-CBG green luminescence

SMILES | AC50 [1] | AC50 [2]
CSc1nc2ccc(S(=O)(=O)NC3CCCCC3)cc2s1 | 6.51 µM [falling, single point] | 
Cc1cc(NS(=O)(=O)c2ccc(NC(=O)c3oc4ccccc4c3C)cc2)no1 | 1.64 µM [falling, partial curve, poor fit] | 
O=C(COc1ccccc1Cl)NCCC1=CCCCC1 | 2.06 µM [rising, partial curve, poor fit] | 
O=C(CO/N=C/c1c(Cl)cccc1Cl)NNC(=O)c1ccc(Cl)cc1 | 15.8 µM [rising, single point] | 
O=C(Nc1nc2c(F)cccc2s1)C1CC1 | 12.6 µM [falling, partial curve] | 
Fc1c(F)c(-n2nnc3ccccc32)c(F)c(F)c1Cl | 14.1 µM [rising, single point] | 
O=C(CSc1nc2[nH]ncc2c(=O)[nH]1)Nc1cccc(Cl)c1 | 7.31 µM [falling, partial curve] | 
COc1ccc(C(=O)Nc2cccc(C(=O)N/N=C/c3ccc(OC)cc3OC)c2)cc1 | 8.91 µM [falling, partial curve] | 
Cc1cc(=O)[nH]c2nnc(SCc3cccc(F)c3)n12 | 12.6 µM [rising, single point] | 
Cc1ccc(NC(=O)COc2ccccc2)c(NC(=O)c2ccco2)c1 | 11.2 µM [rising, partial curve, poor fit] | 
CC(C)CN(c1ccccc1)S(=O)(=O)c1nnc(NC(=O)c2ccco2)s1 | 1.26 µM [falling, full curve, poor fit] | 
O=C1c2[nH]nc(-c3ccccc3O)c2C(c2cccc(Cl)c2)N1CC1CCCO1 (stereo unspecified) | 29.1 µM [falling, single point] | 
O=C(Nc1ccccc1)Nc1cccc2nsnc12 | 11.2 µM [falling, partial curve] | 
NS(=O)(=O)c1cccc(NC(=O)Nc2ccccc2)c1 | 7.08 µM [falling, partial curve] | 
COc1ccc(-c2ccc(NC(=O)c3ccco3)cc2)nn1 | 3.66 µM [falling, full curve] | 
O=C1Nc2ccccc2/C1=C/c1cccnc1 | 11.2 µM [falling, partial curve, poor fit] | 
CCOc1ccc(Sc2cc(C(=O)NCCc3ccc(OC)c(OC)c3)c3ccccc3n2)cc1 | 5.01 µM [rising, single point] | 
CCOC(=O)c1ccc(N2C(=O)c3n[nH]c(C)c3C2c2ccc(OC)c(OC)c2)cc1 (stereo unspecified) | 29.1 µM [falling, partial curve, poor fit] | 
COc1ccc([N+](=O)[O-])cc1Nc1c2ccccc2nc2ccccc12 | 17.8 µM [rising, single point] | 22.4 µM [falling, single point]
O=C1CCC(=O)N1CCCCCc1nc(-c2ccccc2)no1 | 20.6 µM [rising, single point] | 
CCN(CC)C(=O)COc1ccc(/C=C(\C#N)S(=O)(=O)c2ccccc2)cc1OC | 35.5 µM [falling, single point] | 
CC(=O)N[C@H]1C[C@@H]1c1ccccc1 | 32.6 µM [falling, single point] | 

3 entries out of the list, ordered by number of heavy atoms, smallest number first.
SMILES | AC50 [1] | AC50 [2]
O=C(CO/N=C/c1c(Cl)cccc1Cl)NNC(=O)c1ccc(Cl)cc1 | 15.8 µM [rising, single point] | 
Cc1cc(NS(=O)(=O)c2ccc(NC(=O)c3oc4ccccc4c3C)cc2)no1 | 1.64 µM [falling, partial curve, poor fit] | 
CCOc1ccc(Sc2cc(C(=O)NCCc3ccc(OC)c(OC)c3)c3ccccc3n2)cc1 | 5.01 µM [rising, single point] | 

Later entries.

SMILES | AC50 [1] | AC50 [2]
NC(=O)NC(c1ccccc1)c1ccccc1F (stereo unspecified) | 29.1 µM [rising, single point] | 
CCOc1cccc(/C=N/NC(=O)c2cccnc2)c1O | 7.94 µM [falling, partial curve] | 
O=C(OCCOc1ccc(Br)cc1)c1ccc(Cl)c(S(=O)(=O)N2CCOCC2)c1 | 32.6 µM [falling, single point] | 
CCN(C(=O)c1cnc(NC(C)C)cc1C(F)(F)F)c1ccc(Cl)cc1Cl | 1.78 µM [rising, partial curve, poor fit] | 5.62 µM [falling, partial curve]
Cc1ccccc1NC(=O)c1cc2c(C)nc3ccccc3c2o1 | 35.5 µM [rising, partial curve, poor fit] | 
Cc1cccc(-c2cc3nc4c(c(NCc5ccco5)n3n2)CCCC4)c1 | 0.398 µM [falling, full curve] | 
CCCc1cc(=O)n2[nH]c(NC(=O)c3ccco3)nc2n1 | 10 µM [falling, partial curve, poor fit] | 
O=C(N/N=C/c1ccccn1)c1ccncc1 | 10 µM [falling, partial curve, poor fit] | 
O=C(O)C1CCCCC1C(=O)NCc1ccccc1 (stereo unspecified) | 4.61 µM [rising, full curve] | 
CCNc1c(NS(=O)(=O)c2ccc(Br)s2)c(=O)oc2ccccc12 | 10 µM [falling, partial curve] | 
CC1=C(C(=O)Nc2ccccc2)C(c2ccccc2[N+](=O)[O-])NC(=O)N1 (stereo unspecified) | 20 µM [falling, partial curve, poor fit] | 
CCOC(=O)C1CCN(C(=O)COc2ccc(Br)cc2)CC1 | 3.66 µM [falling, full curve] | 
COc1ccc(-c2nc(NC(=O)C3CC(=O)N(Cc4ccco4)C3)sc2C)cc1 (stereo unspecified) | 9.2 µM [falling, partial curve] | 
O=C(COc1ccc2ccccc2c1Br)Nc1cccnc1 | 5.62 µM [rising, single point] | 
COc1cccc(NC(=O)c2cccc(C)c2[N+](=O)[O-])c1 | 7.08 µM [falling, partial curve, poor fit] | 
Cc1onc(-c2ccccc2)c1C(=O)Nc1cccc2nsnc12 | 2.59 µM [falling, single point] | 
Cc1ccccc1-c1noc(N)c1C#N | 11.6 µM [falling, partial curve] | 
O=C(O)c1cccc(S(=O)(=O)Nc2ccccc2Cl)c1 | 4.11 µM [falling, partial curve, poor fit] | 
O=C(NCCNS(=O)(=O)c1ccc(Cl)cc1)c1cc(OCC(F)(F)F)ccc1OCC(F)(F)F | 28.2 µM [rising, single point] | 
COc1ccc(S(=O)(=O)N2CCC(C(=O)Nc3nccs3)CC2)cc1 | 3.55 µM [rising, full curve, poor fit] | 
CCC(=O)N(NC1=NS(=O)(=O)c2ccccc21)S(=O)(=O)c1ccc(C)cc1 | 5.01 µM [falling, full curve, poor fit] | 
COCCN1CCc2[nH]c(=S)[nH]c(=O)c2C1 | 14.6 µM [falling, partial curve, poor fit] | 

SMILES | AC50 [1] | AC50 [2]
O=S(=O)(c1ccccc1)N(CC(O)Cn1c2ccccc2c2ccccc21)c1ccccc1 (stereo unspecified) | 7.94 µM [falling, partial curve, poor fit] | 
Cn1c2c(c(=O)[nH]c1=O)C(c1ccc(O)cc1)C1=C(N2)c2ccccc2C1=O (stereo unspecified) | 12.6 µM [falling, partial curve] | 
COc1ccc(OCC(=O)Nc2ccc(N3CCN(C(=O)c4ccccc4)CC3)c(Cl)c2)cc1 | 0.316 µM [falling, full curve, poor fit] | 
CCC(C)NCCC(=O)Nc1ccc(Cl)c(S(=O)(=O)Nc2ccc(Cl)cc2)c1 (stereo unspecified) | 17.8 µM [falling, single point] | 
CC(C)(C)Nc1nc2cc([N+](=O)[O-])ccc2o1 | 3.55 µM [rising, full curve, poor fit] | 
Cn1cc(C(=O)NCc2ccc(F)cc2)c(=O)c2cc(S(=O)(=O)N3CCCCC3)ccc21 | 4.11 µM [rising, partial curve, poor fit] | 
Cc1nc2ccc(Cc3ccc4nc(C)[nH]c4c3)cc2[nH]1 | 18.4 µM [falling, partial curve, poor fit] | 
Cc1cccc(CN2C(=O)/C(=C\c3ccc(C(=O)NCCCN4CCN(C)CC4)cc3)Oc3ccccc32)c1 | 3.98 µM [rising, full curve, poor fit] | 
O=[N+]([O-])c1ccc(N2CCN(c3ccccc3Cl)CC2)cn1 | 3.55 µM [rising, partial curve, poor fit] | 
Cc1cc(Cl)ccc1OC(C)C(=O)Nc1ccc(C(=O)Nc2ccccc2C(=O)O)cc1 (stereo unspecified) | 5.62 µM [falling, partial curve, poor fit] | 
CC(=O)N1N=C(c2ccccc2OC(=O)/C=C/c2ccccc2)CC1c1ccccc1 (stereo unspecified) | 12.6 µM [falling, single point] | 
O=C(Nc1ncc(Cc2ccccc2Cl)s1)c1ccc(-c2cccc([N+](=O)[O-])c2)o1 | 32.6 µM [rising, single point] | 
COc1ccc(/C=N/NC(=O)c2ccccc2O)cc1CSc1ccccn1 | 7.31 µM [falling, partial curve] | 
Cc1ccnc(OC(C(=O)O)C(OCc2ccccc2)(c2ccc(F)cc2)c2ccc(F)cc2)n1 (stereo unspecified) | 20 µM [falling, single point] | 
Cc1ccc(NC(=O)Cc2c(C(=O)O)n(C)c3ccccc23)cc1F | 2.82 µM [rising, single point] | 
O=[N+]([O-])c1cccnc1NCCc1c[nH]c2ccccc12 | 0.316 µM [rising, full curve, poor fit] | 
COc1cc(NC(=O)N2c3ccccc3Sc3ccccc32)c(C(=O)O)cc1OC | 35.5 µM [rising, partial curve, poor fit] | 
Cc1cc(C)cc(CC(Cc2nc3ccccc3[nH]2)c2nc3ccccc3[nH]2)c1 (stereo unspecified) | 41.1 µM [falling, single point] | 
C=CCSc1n[nH]c(-c2ccc(OCCC)cc2)n1 |  | 13 µM [falling, partial curve, poor fit]
CC(=O)N(CCC1(C(C)C)CCOC(C)(C)C1)C(C)c1cccs1 (stereo unspecified) | 15.8 µM [falling, single point] | 

Taken from the results shown, 2 compounds:
SMILES | AC50 [1] | AC50 [2]
O=C(Nc1ncc(Cc2ccccc2Cl)s1)c1ccc(-c2cccc([N+](=O)[O-])c2)o1 | 32.6 µM [rising, single point] | 
COc1ccc(/C=N/NC(=O)c2ccccc2O)cc1CSc1ccccn1 | 7.31 µM [falling, partial curve] | 
